Patent US10894076B2 (PEGBIO CO., LTD., priority 2015, dated 2021)
At least one structure is not confirmed: it was looked up by name or label, or the drawing left a doubt.

Test system: DIO mice
Experiment: Combination of PB-119 and PB-722, weight loss in DIO mice, 21 days (Example 20)
Format: in vivo, C57BL/6 mice
Conditions: 25 nmol/kg twice a day
Experimental: Male C57BL/6 mice (from the same source as described above) were fed with high-fat diet (45% kcal) for 22 weeks. […] 36 DIO mice were divided into 6 groups based on their body weight and random blood sugar level, with 6 mice per group. […] Except that administration was carried out twice a day in group 6, administration was carried out once every two days in other groups. The experiment was conducted for a total of 21 days for a continuous administration. The body weight and food intake of the mice were measured on the day of the administration, and random blood sugar level and fasting blood sugar level were measured on the second day after the last administration.
After 21 days of administration, an oral glucose tolerance experiment was performed. Mice were orally given 2.5 g/kg glucose solution, and random glucose level was measured at 0 min, 15 min, 30 min, 60 min and 120 min after sugar feeding.

In the case of `CCCCCCCCCCCCCCCC(=O)N[C@@H](CCC(=O)NCCCC[C@H](NC(=O)[C@H](C)NC(=O)[C@H](C)NC(=O)[C@H](CCC(N)=O)NC(=O)CNC(=O)[C@H](CCC(=O)O)NC(=O)[C@H](CC(C)C)NC(=O)[C@H](Cc1ccc(O)cc1)NC(=O)[C@H](CO)NC(=O)[C@H](CO)NC(=O)[C@@H](NC(=O)[C@H](CC(=O)O)NC(=O)[C@H](CO)NC(=O)[C@@H](NC(=O)[C@H](Cc1ccccc1)NC(=O)[C@@H](NC(=O)CNC(=O)[C@H](CCC(=O)O)NC(=O)[C@H](C)NC(=O)[C@@H](N)Cc1cnc[nH]1)[C@@H](C)O)[C@@H](C)O)C(C)C)C(=O)N[C@@H](CCC(=O)O)C(=O)N[C@@H](Cc1ccccc1)C(=O)N[C@H](C(=O)N[C@@H](C)C(=O)N[C@@H](Cc1c[nH]c2ccccc12)C(=O)N[C@@H](CC(C)C)C(=O)N[C@H](C(=O)N[C@@H](CCCNC(=N)N)C(=O)NCC(=O)N[C@@H](CCCNC(=N)N)C(=O)NCC(=O)O)C(C)C)[C@@H](C)CC)C(=O)O` [liraglutide, reference compound], the “fasting blood sugar level decrease compared with that before administration” value is reported as 37.0%.
